The other results are listed elsewhere or left out.
What was measured:
Test in all cases: log2 fold change, soluble protein after heating vs DMSO (PISA); higher = thermal stabilisation; K562 cells, 10 uM, 30 min; active = over 0.2 and 3.5 SD of the protein, either way, in both replicates (recomputed)
[1] = compound: CCCCN(Cc1ccc(C(=O)NO)cc1)C(=O)Nc1ccccc1 [Nexturastat A]
Procedure, shortened: (§1)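 Aliquots of K562 cells (2×10^6 cells/mL) treated with 10 μM compound for 30 min were heated for 3 min over 48°C-58°C. After pooling and extraction in PBS with 0.5% NP-40 at 4°C, soluble protein from a 21,000xg, 90 min spin was quantified by TMTpro 16plex LC-MS/MS with channel sums equalised. Thermal stability is expressed against control samples, from duplicates, as a log2 fold change.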

The chains behind the UniProt entries cited, without tags or fusion partners. Where a name states a change or a piece, a line headed by the entry shows the natural chain unless it says otherwise.
UniProt Q9H5Z1: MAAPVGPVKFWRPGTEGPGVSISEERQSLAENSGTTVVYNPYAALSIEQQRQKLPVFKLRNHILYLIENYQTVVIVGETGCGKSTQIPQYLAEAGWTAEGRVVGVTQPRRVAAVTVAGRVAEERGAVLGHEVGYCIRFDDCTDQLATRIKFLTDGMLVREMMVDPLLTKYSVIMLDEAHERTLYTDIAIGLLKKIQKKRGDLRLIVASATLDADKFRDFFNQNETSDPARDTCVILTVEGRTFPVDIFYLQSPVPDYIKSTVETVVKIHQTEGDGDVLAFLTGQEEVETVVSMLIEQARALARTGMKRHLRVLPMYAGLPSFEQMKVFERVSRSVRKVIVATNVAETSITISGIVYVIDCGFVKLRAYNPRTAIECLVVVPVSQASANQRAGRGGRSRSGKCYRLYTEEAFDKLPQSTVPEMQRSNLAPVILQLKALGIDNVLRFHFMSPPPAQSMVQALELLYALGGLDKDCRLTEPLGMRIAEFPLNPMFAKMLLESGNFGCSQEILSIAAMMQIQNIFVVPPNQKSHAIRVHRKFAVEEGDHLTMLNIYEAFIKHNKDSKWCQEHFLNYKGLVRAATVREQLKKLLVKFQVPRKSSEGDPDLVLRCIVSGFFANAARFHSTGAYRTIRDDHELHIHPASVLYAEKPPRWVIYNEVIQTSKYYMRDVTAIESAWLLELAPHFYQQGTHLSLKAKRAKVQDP
UniProt A8MPP1: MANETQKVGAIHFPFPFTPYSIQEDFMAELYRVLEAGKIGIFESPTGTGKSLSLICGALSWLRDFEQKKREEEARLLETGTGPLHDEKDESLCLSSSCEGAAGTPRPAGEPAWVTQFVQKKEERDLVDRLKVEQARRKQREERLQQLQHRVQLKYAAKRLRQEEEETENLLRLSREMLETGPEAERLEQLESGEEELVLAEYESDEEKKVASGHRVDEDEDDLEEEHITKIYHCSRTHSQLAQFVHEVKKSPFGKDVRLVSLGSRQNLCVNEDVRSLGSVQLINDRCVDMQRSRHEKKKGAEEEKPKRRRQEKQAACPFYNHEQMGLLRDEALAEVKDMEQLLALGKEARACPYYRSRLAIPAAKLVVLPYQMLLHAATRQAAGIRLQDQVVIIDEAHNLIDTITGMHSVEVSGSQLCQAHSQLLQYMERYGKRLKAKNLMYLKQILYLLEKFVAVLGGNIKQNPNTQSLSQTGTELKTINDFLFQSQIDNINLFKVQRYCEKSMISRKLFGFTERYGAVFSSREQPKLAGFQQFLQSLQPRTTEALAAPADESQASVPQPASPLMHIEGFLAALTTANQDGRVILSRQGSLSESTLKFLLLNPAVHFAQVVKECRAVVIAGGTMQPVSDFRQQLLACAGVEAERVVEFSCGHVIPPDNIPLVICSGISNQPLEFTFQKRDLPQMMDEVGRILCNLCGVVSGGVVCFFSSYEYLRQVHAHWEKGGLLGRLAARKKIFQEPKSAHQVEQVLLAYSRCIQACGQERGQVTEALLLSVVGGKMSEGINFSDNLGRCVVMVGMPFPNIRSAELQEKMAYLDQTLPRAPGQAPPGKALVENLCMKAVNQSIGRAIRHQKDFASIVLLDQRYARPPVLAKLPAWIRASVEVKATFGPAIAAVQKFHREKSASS
UniProt O00273: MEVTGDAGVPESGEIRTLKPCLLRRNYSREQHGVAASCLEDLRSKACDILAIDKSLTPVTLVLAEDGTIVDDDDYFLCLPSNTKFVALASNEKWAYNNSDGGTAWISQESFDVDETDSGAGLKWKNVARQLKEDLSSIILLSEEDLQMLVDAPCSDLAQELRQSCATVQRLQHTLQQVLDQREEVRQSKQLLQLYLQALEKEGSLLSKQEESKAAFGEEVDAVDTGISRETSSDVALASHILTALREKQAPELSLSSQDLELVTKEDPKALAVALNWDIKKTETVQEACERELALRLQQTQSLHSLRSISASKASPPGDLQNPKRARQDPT
UniProt O75398: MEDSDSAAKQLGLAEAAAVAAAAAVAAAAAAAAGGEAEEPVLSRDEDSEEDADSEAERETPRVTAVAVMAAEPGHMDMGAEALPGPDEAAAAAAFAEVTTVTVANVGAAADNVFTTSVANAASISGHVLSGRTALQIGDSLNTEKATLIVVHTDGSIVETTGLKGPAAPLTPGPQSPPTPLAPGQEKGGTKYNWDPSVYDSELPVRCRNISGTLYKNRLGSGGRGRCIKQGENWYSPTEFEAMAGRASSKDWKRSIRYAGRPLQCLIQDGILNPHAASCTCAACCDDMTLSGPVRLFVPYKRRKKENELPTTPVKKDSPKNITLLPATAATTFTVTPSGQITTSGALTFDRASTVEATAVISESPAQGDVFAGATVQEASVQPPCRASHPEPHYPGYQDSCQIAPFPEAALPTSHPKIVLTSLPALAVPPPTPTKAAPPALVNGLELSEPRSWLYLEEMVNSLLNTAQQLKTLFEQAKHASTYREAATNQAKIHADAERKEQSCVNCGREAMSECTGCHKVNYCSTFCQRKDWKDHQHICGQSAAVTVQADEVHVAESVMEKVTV
UniProt Q9BSY9: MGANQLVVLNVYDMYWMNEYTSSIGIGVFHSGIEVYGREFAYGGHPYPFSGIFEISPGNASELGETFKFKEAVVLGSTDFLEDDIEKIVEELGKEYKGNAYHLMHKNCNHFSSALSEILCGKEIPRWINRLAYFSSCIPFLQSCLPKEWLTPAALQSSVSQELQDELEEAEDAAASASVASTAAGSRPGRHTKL
UniProt O94760: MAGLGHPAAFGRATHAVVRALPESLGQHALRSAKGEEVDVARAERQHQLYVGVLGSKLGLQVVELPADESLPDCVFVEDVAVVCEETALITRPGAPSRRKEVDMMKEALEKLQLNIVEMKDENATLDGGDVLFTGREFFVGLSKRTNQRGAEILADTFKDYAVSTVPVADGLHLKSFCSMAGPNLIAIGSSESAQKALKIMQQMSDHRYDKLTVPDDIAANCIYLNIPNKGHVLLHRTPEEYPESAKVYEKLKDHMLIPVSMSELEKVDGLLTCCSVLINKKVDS
UniProt Q9NVP1: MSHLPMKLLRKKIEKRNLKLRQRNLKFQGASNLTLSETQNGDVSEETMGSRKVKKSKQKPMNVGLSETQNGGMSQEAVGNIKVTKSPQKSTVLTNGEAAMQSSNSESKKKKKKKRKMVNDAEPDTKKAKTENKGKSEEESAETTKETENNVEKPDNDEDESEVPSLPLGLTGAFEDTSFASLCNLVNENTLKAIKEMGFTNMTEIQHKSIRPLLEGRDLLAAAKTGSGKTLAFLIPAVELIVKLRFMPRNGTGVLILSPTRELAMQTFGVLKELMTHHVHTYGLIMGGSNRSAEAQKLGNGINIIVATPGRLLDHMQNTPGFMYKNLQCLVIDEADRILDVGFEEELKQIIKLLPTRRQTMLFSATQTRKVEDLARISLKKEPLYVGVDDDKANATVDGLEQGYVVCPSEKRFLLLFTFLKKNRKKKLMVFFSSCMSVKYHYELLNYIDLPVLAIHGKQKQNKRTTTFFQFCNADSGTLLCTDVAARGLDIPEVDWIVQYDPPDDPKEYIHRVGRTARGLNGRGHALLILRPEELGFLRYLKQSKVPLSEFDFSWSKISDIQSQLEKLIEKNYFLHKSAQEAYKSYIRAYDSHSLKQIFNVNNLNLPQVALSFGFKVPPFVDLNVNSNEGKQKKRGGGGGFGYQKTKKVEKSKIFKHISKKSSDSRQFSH
UniProt Q96HY7: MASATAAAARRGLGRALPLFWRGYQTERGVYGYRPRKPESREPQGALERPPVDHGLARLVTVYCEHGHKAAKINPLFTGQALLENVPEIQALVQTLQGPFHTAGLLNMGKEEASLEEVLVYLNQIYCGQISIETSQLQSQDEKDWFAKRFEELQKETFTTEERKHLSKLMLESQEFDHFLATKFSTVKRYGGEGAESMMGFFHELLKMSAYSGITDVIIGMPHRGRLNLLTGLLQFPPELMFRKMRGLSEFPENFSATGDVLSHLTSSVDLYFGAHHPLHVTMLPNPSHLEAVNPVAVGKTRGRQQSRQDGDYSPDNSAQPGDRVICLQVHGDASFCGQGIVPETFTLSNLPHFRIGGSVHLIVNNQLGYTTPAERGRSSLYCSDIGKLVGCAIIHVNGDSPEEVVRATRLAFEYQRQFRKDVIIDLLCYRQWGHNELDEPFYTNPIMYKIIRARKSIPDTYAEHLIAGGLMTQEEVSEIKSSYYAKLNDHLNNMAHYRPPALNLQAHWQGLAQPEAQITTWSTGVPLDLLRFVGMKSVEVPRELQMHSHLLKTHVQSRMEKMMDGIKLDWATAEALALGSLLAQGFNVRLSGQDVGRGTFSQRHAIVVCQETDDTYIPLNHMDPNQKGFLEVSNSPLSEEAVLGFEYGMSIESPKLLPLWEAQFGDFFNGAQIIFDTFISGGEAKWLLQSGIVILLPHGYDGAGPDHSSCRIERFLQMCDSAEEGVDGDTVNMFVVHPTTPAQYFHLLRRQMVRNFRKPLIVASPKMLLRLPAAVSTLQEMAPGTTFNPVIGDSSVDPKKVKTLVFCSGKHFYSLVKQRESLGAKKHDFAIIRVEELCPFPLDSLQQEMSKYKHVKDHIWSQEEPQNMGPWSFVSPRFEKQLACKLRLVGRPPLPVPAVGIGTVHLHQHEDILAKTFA

[2] = compound: CC[C@H](C)N1C=C(C2=C(C=C(C=C21)C3=CN=C(C=C3)N4CCNCC4)C(=O)NCC5=C(C=C(NC5=O)C)C)C
Procedure, shortened: as §1

[3] = compound: CC[C@H](C)[C@@H](C(=O)N[C@@H]([C@@H](C)O)C(=O)N[C@@H](CC(C)C)C(=O)[C@]1(CO1)C)NC(=O)[C@H]([C@@H](C)CC)N(C)C(=O)C [epoxomicin]
Procedure, shortened: as §1

[4] = compound: CC1=CC=C(C=C1)SC2=C3C=C(SC3=CN=C2)C(=O)N
Procedure, shortened: as §1

[5] = compound: CCCS(=O)(=O)Nc1ccc(F)c(C(=O)c2c[nH]c3ncc(Cl)cc23)c1F
Procedure, shortened: as §1

[6] = compound: CCN(CCCOc1ccc2c(Nc3cc(CC(=O)Nc4cccc(F)c4)[nH]n3)ncnc2c1)CCOP(=O)(O)O [barasertib]
Procedure, shortened: as §1

[7] = compound: CC[C@@H]1C(=O)N(C)c2cnc(Nc3ccc(C(=O)N[C@H]4CC[C@H](N5CCN(CC6CC6)CC5)CC4)cc3OC)nc2N1C(C)C [volasertib]
Procedure, shortened: as §1

[8] = compound: CN(CCOC1=CC=C(C=C1)C[C@H]2C(=O)NC(=O)S2)C3=CC=CC=N3 (racemic) [rosiglitazone]
Procedure, shortened: as §1

[9] = compound: CN1C2=C(C3=C1C(=O)N(N=C3)CC4=CC(=CC=C4)N)SC(=C2)S(=O)C
Procedure, shortened: as §1

[10] = compound: CC1=NC(=CC=C1)C2=C(N=C(N2)C(C)(C)C)C3=CC4=NC=CN=C4C=C3
Procedure, shortened: as §1

[11] = compound: CCCc1cc(C)[nH]c(=O)c1CNC(=O)c1cc(-c2ccnc(N3CCN(C)CC3)c2)cc2c1cnn2C(C)C
Procedure, shortened: as §1

[12] = compound: CCN(CC)Cc1ccc2cc(COC(=O)Nc3ccc(C(=O)NO)cc3)ccc2c1 [givinostat]
Procedure, shortened: as §1

[13] = compound: CCn1c(C(=O)N(C2CC2)C2CC2)cc2c3c(ncn3C)c(Nc3cc(C)n(C)n3)nc21
Procedure, shortened: as §1

[14] = compound: CC1=C(C=C(C=C1)NC(=O)C2=CC(=CC=C2)C(C)(C)C#N)NC3=CC4=C(C=C3)N=CN(C4=O)C
Procedure, shortened: as §1

[15] = compound: CC[C@@H]1C(=O)N(C)c2cnc(Nc3ccc(C(=O)NC4CCN(C)CC4)cc3OC)nc2N1C1CCCC1
Procedure, shortened: as §1

[16] = compound: CCCS(=O)(=O)Nc1ccc(F)c(C(=O)c2c[nH]c3ncc(-c4ccc(Cl)cc4)cc23)c1F [vemurafenib]
Procedure, shortened: as §1

[17] = compound: CCn1cc(-c2ccnc3[nH]c(-c4cccc(CN(C)C)c4)cc23)c(-c2ccc(NC(=O)N(C)C)cc2)n1
Procedure, shortened: as §1

[18] = compound: CN(C)CC(=O)Nc1ccc2[nH]c(=O)c3ccccc3c2c1
Procedure, shortened: as §1

[19] = compound: CN1CCC(CNc2ccc3ncc(-c4cccc(OC(F)(F)F)c4)n3n2)CC1
Procedure, shortened: as §1

Measured: log2 fold change

DHX35 (UniProt Q9H5Z1)
inactive: [1] 0.156 | [2] -0.226 | [3] 0.056

DDX11L8 (UniProt A8MPP1)
inactive: [4] -0.012 | [5] 0.05 | [6] 0.027 | [7] -0.103 | [8] -0.021 | [9] 0.2

DFFA isoform 2 (UniProt O00273)
inactive: [10] 0.006 | [1] 0.133 | [11] 0.129 | [12] 0.153 | [6] -0.055 | [2] 0.001 | [3] -0.061 | [13] -0.043 | [8] 0.062 | [9] -0.084

DEAF1 (UniProt O75398)
inactive: [9] 0.142

DESI2 (UniProt Q9BSY9)
inactive: [14] 0.053 | [4] 0.134 | [10] 0.061 | [5] 0.079 | [12] 0.081 | [6] 0.008 | [15] 0.017 | [7] -0.156 | [2] 0.013 | [13] -0.148 | [8] 0.092

DDAH1 (UniProt O94760)
inactive: [4] 0.008 | [16] -0.098 | [5] 0.072 | [11] -0.061 | [12] -0.064 | [6] 0.022 | [15] 0.075 | [7] 0.091 | [2] 0.009 | [13] -0.007 | [17] -0.035 | [18] 0.022 | [8] -0.039 | [9] -0.041 | [19] 0.035

DDX18 (UniProt Q9NVP1)
inactive: [14] -0.102 | [10] -0.074 | [11] 0.059 | [15] 0.133 | [17] -0.086 | [9] 0.351 | [19] 0.285

DHTKD1 (UniProt Q96HY7)
inactive: [10] -0.208 | [1] -0.056 | [12] 0.096 | [6] 0.094 | [15] -0.013 | [3] 0.259 | [13] -0.511 | [8] 0.04

DECR1 (UniProt E5RJD2)
inactive: [4] -0.033 | [5] -0.163 | [11] 0.045 | [6] -0.037 | [7] 0.039 | [2] -0.247 | [17] 0.06 | [8] -0.032 | [9] -0.047 | [19] -0.271

Source: the supplement of paper PMC10849652
